From publication doi:10.1101/2024.02.27.582368 (bioRxiv, 2024)
No constants are given. Whether binding was seen depends on the method and setting. Some binding calls cover weakened binding; strength is not graded here.

Assays:
[1] = target: N-domain39-190 of BC1280 (Bacillus cereus ATCC14579) (UniProt Q81GC7); test: X-ray diffraction of ultracentrifuged assemblies
[2] = target: N-domain39-190 of BC1280 (Bacillus cereus ATCC14579) (UniProt Q81GC7); test: thioflavin T aggregation kinetics
[3] = target: N-domain39-190 of BC1280 (Bacillus cereus ATCC14579) (UniProt Q81GC7); test: dynamic light scattering
[4] = target: N-domain39-190 of BC1280 (Bacillus cereus ATCC14579) (UniProt Q81GC7); test: SEC

Measured: binding

B1: N-domain39-190 of BC1280 (domain or fragment, Bacillus cereus ATCC14579, UniProt Q81GC7 39-190, looked up)
chain: AAFIHETKVEATLSTAIIFPKTVNTLKEQSEKHKQFIEREYGTMKGKLKATSIEEIKQAISVWQQGREKIVAEKEALQNVYTEIEAPYNQIQEELKVNKDESMQQVSIYVNEGFRSIKEKRDYIEKEISLKAIDEQIQALQQQLNVAIEAEG
binds: all assays above
